Test results from PubChem BioAssay AID248 (DTP/NCI, 2004).
The list shows only some results of the screen, not a fair sample: it is rich in T/C values a quarter to a half above the control, in often repeated tests (any T/C) and in doses without a T/C. Other doses and runs of a compound stand elsewhere. T/C: endpoint of the treated group in % of that of the vehicle group. Some entries give survivors of the animals treated and no T/C: the source files T/C as zero there, which appears to mark a toxic dose or a test without result, not a measured value. Some doses without a T/C left all or most animals alive at the check, yet need not have been tolerated: the source hardly ever lists a survival T/C far under the control, and the zero likely stands for such cases as well. Survivors were counted at the toxicity check, usually on the fifth day, unless a day is given; later deaths do not show. Schedules are NCI's codes, read here as Q, the interval in days (D) or hours (H), X, the number of doses. Some schedules carry Z or #; the key to these is not given. Where survival is the endpoint, the PubChem record calls one and a half times the control and up active, and a quarter to a half above the control has no call in these data; cut-offs in other NCI protocols can differ. Some entries hold several experiments; the values are given in rising order.

Tested on: L1210 leukemia ip in BDF1 mice, survival T/C
Assay: NCI In Vivo Anticancer Drug Screen. Data for tumor model L1210 Leukemia (intraperitoneal) in B6D2F1 (BDF1) mice
Conditions: T/C endpoint: mean survival time, higher T/C = longer survival
[1] = dose: 100.0 mg/kg/injection, schedule: Q04DX002 (ip), vehicle: Klucel (hydroxypropylcellulose) (HPC)
[2] = dose: 200.0 mg/kg/injection, schedule: Q01DX001 (ip), vehicle: saline
[3] = dose: 400.0 mg/kg/injection, schedule: Q01DX001 (ip), vehicle: carboxymethylcellulose (CMC)
[4] = dose: 100.0 mg/kg/injection, schedule: Q04DX003 (ip), vehicle: Klucel (hydroxypropylcellulose) (HPC)
[5] = dose: 400.0 mg/kg/injection, schedule: Q04DX003 (ip), vehicle: Klucel (hydroxypropylcellulose) (HPC)
[6] = dose: 3.13 mg/kg/injection, schedule: Q01DX009 (ip), vehicle: Klucel (hydroxypropylcellulose) (HPC)
[7] = dose: 50.0 mg/kg/injection, schedule: Q01DX009 (ip), vehicle: Klucel (hydroxypropylcellulose) (HPC)
[8] = dose: 100.0 mg/kg/injection, schedule: Q01DX009 (ip), vehicle: Klucel (hydroxypropylcellulose) (HPC)
[9] = dose: 200.0 mg/kg/injection, schedule: Q01DX009 (ip), vehicle: Klucel (hydroxypropylcellulose) (HPC)
[10] = dose: 200.0 mg/kg/injection, schedule: Q04DX003 (ip), vehicle: Klucel (hydroxypropylcellulose) (HPC)
[11] = dose: 200.0 mg/kg/injection, schedule: Q04DX003 (ip), vehicle: saline
[12] = dose: 400.0 mg/kg/injection, schedule: Q04DX003 (ip), vehicle: saline
[13] = dose: 400.0 mg/kg/injection, schedule: Q01DX009 (ip), vehicle: saline with Tween-80
[14] = dose: 400.0 mg/kg/injection, schedule: Q01DX009 (ip), vehicle: Klucel (hydroxypropylcellulose) (HPC)

Question: What does the source list for `CCCCCCCCCCCCCCCCCCC1=NCCN1`?
Answer: survivor count (dose: 37.5 mg/kg/injection, schedule: Q04DX003 (ip), vehicle: saline): 1 of 6; survivor count (dose: 75.0 mg/kg/injection, schedule: Q04DX003 (ip), vehicle: saline): 0 of 6; survivor count (dose: 150.0 mg/kg/injection, schedule: Q01DX001 (ip), vehicle: acetone): 2 of 6; survivor count (dose: 300.0 mg/kg/injection, schedule: Q01DX001 (ip), vehicle: acetone): 1 of 6

Question: `CC(Cl)CN1Cc2ccccc2CCc2ccccc2C1` (centres undefined) was tested. Which survivor count [1] did it give?
Answer: 1 of 3

Question: With `COC1C(OC(C)=O)CC(=O)OC(C)C/C=C/C=C\C(O)C(C)CC(CC=O)C1OC1OC(C)C(OC2CC(C)(O)C(OC(=O)CC(C)C)C(C)O2)C(N(C)C)C1O` (centres undefined) as the compound, how does the survivor count [2] read?
Answer: 6 of 6

Question: Which results are given for `Clc1nc(Cl)c(CBr)c(Cl)n1`?
Answer: survivor count (dose: 32.0 mg/kg/injection, schedule: Q01DX009 (ip), vehicle: carboxymethylcellulose (CMC)): 0 of 6; survivor count (dose: 50.0 mg/kg/injection, schedule: Q01DX001 (ip), vehicle: carboxymethylcellulose (CMC)): 3 of 6; survivor count (dose: 64.0 mg/kg/injection, schedule: Q01DX009 (ip), vehicle: carboxymethylcellulose (CMC)): 0 of 6; survivor count (dose: 80.0 mg/kg/injection, schedule: Q01DX001 (ip), vehicle: carboxymethylcellulose (CMC)): 3 of 6; survivor count (dose: 100.0 mg/kg/injection, schedule: Q01DX001 (ip), vehicle: carboxymethylcellulose (CMC)): 0 of 6; survivor count (dose: 200.0 mg/kg/injection, schedule: Q01DX001 (ip), vehicle: carboxymethylcellulose (CMC)): 0 of 6; survivor count [3]: 0 of 6

Question: `CCC(C)C(CCN(C)C)(CNC(=O)CN(CC)CC)c1cccc2ccccc12` (centres undefined) was tested. Which survivor count (dose: 400.0 mg/kg/injection, schedule: Q01DX009 (ip), vehicle: saline) did it give?
Answer: 0 of 6

Question: `CC1(C)OC2OC(C(O)CSCc3ccccc3)C(O)C2O1` (centres undefined) was tested. Which survivor count (dose: 400.0 mg/kg/injection, schedule: Q01DX001 (ip), vehicle: saline with Tween-80) did it give?
Answer: 3 of 6

Question: For `COc1ccc(Nc2cc(C)nc(N)n2)cc1`, which survivor count (dose: 100.0 mg/kg/injection, schedule: Q01DX Z (ip), vehicle: methylcellulose (MC)) is on record?
Answer: 6 of 6

Question: What about the survivor count (dose: 200.0 mg/kg/injection, schedule: Q01DX Z (ip), vehicle: methylcellulose (MC)) of the same compound?
Answer: 6 of 6

Question: With `CC1(C)C2CCC(CCO)C1C2` (centres undefined) as the compound, how does the survivor count (dose: 150.0 mg/kg/injection, schedule: Q01DX009 (ip), vehicle: saline with Tween-80) read?
Answer: 0 of 6

Question: And the survivor count (dose: 200.0 mg/kg/injection, schedule: Q04DX003 (ip), vehicle: saline with Tween-80)?
Answer: 4 of 6

Question: And the survivor count (dose: 225.0 mg/kg/injection, schedule: Q01DX009 (ip), vehicle: saline with Tween-80)?
Answer: 0 of 6

Question: And the survivor count (dose: 400.0 mg/kg/injection, schedule: Q04DX003 (ip), vehicle: saline with Tween-80)?
Answer: 0 of 6

Question: `CC(=O)OC1C(C(=O)O)CC(C(=O)O)C1OC(C)=O` (centres undefined) was tested. Which T/C [2] did it give?
Answer: 142 % of control

Question: `O=S(=O)(Oc1cccc(C(F)(F)F)c1)c1cccc(C(F)(F)F)c1` was tested. Which survivor count [4] did it give?
Answer: 5 of 6

Question: What about the survivor count [5] of the same compound?
Answer: 6 of 6

Question: `OCC1OC(n2ncc3c(Cl)ccnc32)C(O)C1O` (centres undefined) was tested. Which survivor count (dose: 100.0 mg/kg/injection, schedule: Q01DX005 (ip), vehicle: other) did it give?
Answer: 2 of 3

Question: What about the survivor count (dose: 200.0 mg/kg/injection, schedule: Q01DX005 (ip), vehicle: other) of the same compound?
Answer: 1 of 3

Question: How did the T/C (dose: 1.1 mg/kg/injection, schedule: Q01DX009 (ip), vehicle: saline) turn out when `COc1cccc2c1C(=O)c1c(O)c3c(c(O)c1C2=O)C[C@@](O)(C(=O)COC(=O)c1cccnc1)C[C@@H]3OC1CC(N)C(O)C(C)O1` (some centres undefined) was run?
Answer: 135 % of control

Question: With `OCc1cc(Cl)ccc1O` as the compound, how does the survivor count (dose: 400.0 mg/kg/injection, schedule: Q01DX009 (ip), vehicle: other) read?
Answer: 0 of 6

Question: What does the source list for `Cc1cc(C)nc(NS(=O)(=O)c2ccc(N=Nc3nc4[nH]c(N)nc(=S)c4[nH]3)cc2)n1`?
Answer: T/C [6]: 144 % of control; survivor count [6]: 3 of 6; T/C (dose: 6.25 mg/kg/injection, schedule: Q01DX009 (ip), vehicle: Klucel (hydroxypropylcellulose) (HPC)): 145 % of control; T/C (dose: 12.5 mg/kg/injection, schedule: Q01DX009 (ip), vehicle: Klucel (hydroxypropylcellulose) (HPC)): 143 and 144 % of control; T/C [7]: 134 % of control; survivor count [7]: 6 of 6; T/C (dose: 50.0 mg/kg/injection, schedule: Q04DX003 (ip), vehicle: Klucel (hydroxypropylcellulose) (HPC)): 139 and 143 % of control; T/C [8]: 136 % of control; survivor count [8]: 6 of 6; T/C [4]: 139 and 141 % of control; survivor count [4]: 6 of 6; survivor count [9]: 4 of 6; T/C [10]: 135 and 138 % of control; survivor count [10]: 2 of 6; survivor count [5]: 1 of 6

Question: How did the survivor count [10] turn out when `O=C(CNC(=O)C(CSCc1ccccc1)NC(=O)OCc1ccccc1)OCc1ccccc1` (centres undefined) was run?
Answer: 6 of 6

Question: `CC1(Cl)C(=O)NC(=O)C1Cl` (centres undefined) was tested. Which survivor count (dose: 12.5 mg/kg/injection, schedule: Q01DX009 (ip), vehicle: saline) did it give?
Answer: 6 of 6

Question: What about the survivor count (dose: 100.0 mg/kg/injection, schedule: Q04DX003 (ip), vehicle: saline) of the same compound?
Answer: 3 of 6

Question: And the survivor count [11]?
Answer: 0 of 6

Question: And the survivor count [12]?
Answer: 0 of 6

Question: `C1CCCC(NNC2CCCCCCC2)CCC1` was tested. Which survivor count [2] did it give?
Answer: 0 of 6

Question: What about the survivor count (dose: 400.0 mg/kg/injection, schedule: Q01DX001 (ip), vehicle: saline) of the same compound?
Answer: 0 of 6

Question: For `COc1cc2cc[n+](C)cc2cc1OC`, which survivor count (dose: 200.0 mg/kg/injection, schedule: Q01DX009 (ip), vehicle: saline) is on record?
Answer: 0 of 6

Question: What about the survivor count [12] of the same compound?
Answer: 2 of 6

Question: What does the source list for `Clc1ccc2scc3c4ccccc4nc-3c2c1`?
Answer: survivor count (dose: 200.0 mg/kg/injection, schedule: Q04DX003 (ip), vehicle: acetone): 3 of 6; survivor count (dose: 400.0 mg/kg/injection, schedule: Q04DX003 (ip), vehicle: acetone): 0 of 6

Question: Which survivor count [1] does the source give for `Clc1cc[c]([Sn]([O][Sn]([c]2ccc(Cl)cc2)([c]2ccc(Cl)cc2)[c]2ccc(Cl)cc2)([c]2ccc(Cl)cc2)[c]2ccc(Cl)cc2)cc1` here?
Answer: 1 of 3

Question: And the survivor count (dose: 200.0 mg/kg/injection, schedule: Q04DX002 (ip), vehicle: Klucel (hydroxypropylcellulose) (HPC))?
Answer: 0 of 3

Question: What about the survivor count (dose: 400.0 mg/kg/injection, schedule: Q04DX002 (ip), vehicle: Klucel (hydroxypropylcellulose) (HPC)) of the same compound?
Answer: 0 of 3

Question: How did the survivor count (dose: 100.0 mg/kg/injection, schedule: Q01DX009 (ip), vehicle: saline with Tween-80) turn out when `CSC(=N)c1cccc(OCCCOc2ccccc2)c1` was run?
Answer: 6 of 6

Question: What about the survivor count [13] of the same compound?
Answer: 1 of 6

Question: How did the survivor count (dose: 225.0 mg/kg/injection, schedule: Q01DX009 (ip), vehicle: saline) turn out when `O=NC1C(Cl)C2CC1C1C(Br)C(Br)CC21` (centres undefined) was run?
Answer: 1 of 6

Question: Which survivor count [13] does the source give for `C#CCSC(=S)NNc1ccccc1` here?
Answer: 3 of 6

Question: For `ClCN(CCl)CCl`, which survivor count [3] is on record?
Answer: 0 of 4

Question: How did the survivor count [9] turn out when `O=C(O)c1ccc(Cl)cc1Nc1ccc(F)cc1` was run?
Answer: 6 of 6

Question: What about the survivor count [14] of the same compound?
Answer: 6 of 6

Question: `COc1ccccc1N=Nc1c(O)n(-c2ccccc2OC)c(=S)n(-c2ccccc2)c1=O` was tested. Which survivor count (dose: 400.0 mg/kg/injection, schedule: Q01DX001 (ip), vehicle: Klucel (hydroxypropylcellulose) (HPC)) did it give?
Answer: 2 of 6

Question: `CC(Cl)CN(CC(C)Cl)C(=O)OCC(NC(=O)OCc1ccccc1)C(=O)OCc1ccccc1` (centres undefined) was tested. Which survivor count [9] did it give?
Answer: 6 of 6

Question: What about the survivor count [14] of the same compound?
Answer: 6 of 6

Question: `c1ccc2c(c1)CNCc1ccccc1-2` was tested. Which survivor count [11] did it give?
Answer: 0 of 6

Question: And the survivor count [12]?
Answer: 0 of 6
